The source of these data is patent publication US20250263778A1 (Hoffmann-La Roche, published 2025).

Protein sequences, listed by entry. Tags and fused reporters are not part of them. Residues count along the entry.
UniProt Q924X6, residues 29-858: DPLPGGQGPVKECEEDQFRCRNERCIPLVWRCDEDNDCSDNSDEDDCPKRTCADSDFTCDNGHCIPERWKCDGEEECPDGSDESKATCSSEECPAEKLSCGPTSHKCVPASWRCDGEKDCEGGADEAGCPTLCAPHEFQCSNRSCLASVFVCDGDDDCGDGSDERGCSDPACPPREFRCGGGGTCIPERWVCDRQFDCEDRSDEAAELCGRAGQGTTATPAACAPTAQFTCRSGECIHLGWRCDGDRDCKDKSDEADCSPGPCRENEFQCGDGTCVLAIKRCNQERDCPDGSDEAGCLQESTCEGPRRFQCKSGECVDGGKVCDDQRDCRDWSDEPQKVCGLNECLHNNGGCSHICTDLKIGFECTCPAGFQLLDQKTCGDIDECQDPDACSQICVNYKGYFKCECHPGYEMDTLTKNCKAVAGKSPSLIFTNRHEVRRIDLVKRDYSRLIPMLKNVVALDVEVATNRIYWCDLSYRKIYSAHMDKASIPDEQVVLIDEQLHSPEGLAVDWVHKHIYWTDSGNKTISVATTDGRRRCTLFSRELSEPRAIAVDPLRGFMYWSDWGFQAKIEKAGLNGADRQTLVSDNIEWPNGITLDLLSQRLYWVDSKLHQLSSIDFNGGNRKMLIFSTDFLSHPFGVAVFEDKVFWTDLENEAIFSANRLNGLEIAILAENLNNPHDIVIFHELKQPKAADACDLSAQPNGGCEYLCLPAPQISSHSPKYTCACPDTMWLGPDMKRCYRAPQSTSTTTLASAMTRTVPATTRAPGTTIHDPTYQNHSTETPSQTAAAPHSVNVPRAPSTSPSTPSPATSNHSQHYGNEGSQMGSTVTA
UniProt Q14114, residues 33-826: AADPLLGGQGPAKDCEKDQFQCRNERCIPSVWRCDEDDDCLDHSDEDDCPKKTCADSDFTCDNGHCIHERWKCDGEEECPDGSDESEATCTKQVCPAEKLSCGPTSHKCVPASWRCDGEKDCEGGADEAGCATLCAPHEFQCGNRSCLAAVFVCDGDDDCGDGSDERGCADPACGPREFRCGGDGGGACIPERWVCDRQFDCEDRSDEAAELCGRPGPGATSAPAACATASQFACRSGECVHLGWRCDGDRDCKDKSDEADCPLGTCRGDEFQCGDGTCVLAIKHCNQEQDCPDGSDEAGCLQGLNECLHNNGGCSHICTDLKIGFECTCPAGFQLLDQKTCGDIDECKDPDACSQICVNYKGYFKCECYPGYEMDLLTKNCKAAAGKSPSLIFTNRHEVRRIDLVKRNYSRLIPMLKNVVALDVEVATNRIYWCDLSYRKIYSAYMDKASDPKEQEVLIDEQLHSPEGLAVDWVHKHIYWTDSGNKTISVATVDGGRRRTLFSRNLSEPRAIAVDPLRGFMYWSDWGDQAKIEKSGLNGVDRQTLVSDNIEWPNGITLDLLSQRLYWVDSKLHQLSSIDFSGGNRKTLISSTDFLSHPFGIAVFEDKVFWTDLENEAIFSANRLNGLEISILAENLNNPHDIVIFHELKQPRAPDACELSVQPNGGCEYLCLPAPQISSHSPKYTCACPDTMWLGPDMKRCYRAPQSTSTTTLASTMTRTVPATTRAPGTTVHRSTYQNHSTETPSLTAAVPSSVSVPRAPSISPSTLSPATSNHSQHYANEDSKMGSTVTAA

Test [1] addresses T1, murine LRP8, biotinylated (murine, UniProt Q924X6 29-858, limits assumed, biotinylated).
T1 construct: also called mu-antigen; murine antigen
Description: ELISA, binding specificity. (In general: An ELISA detects its analyte on a solid surface through an enzyme-linked reagent.)

The target of test [2] is human LRP8 (Low-density lipoprotein receptor-related protein 8), biotinylated (human) (UniProt Q14114). The test is described as follows: ELISA, binding specificity.

Results are given in words; binding and its absence hold for the method and conditions named. Some results given as binding are weak or reduced against the parent protein; the word gives no strength.

B1: BCC.763 (antibody, V domains shown)
VH: CQSVEESGGRLVTPGTPLTLTCTASGFSLSSYNMNWVRQAPGKGLEWIGYINKGGSAYYASWAKGRFTISRTSTTVDLKMTSPTTEDTATYFCVRSGGGGNLNLWGQGTLVTVSS
VL: AAVLTQTPSPVSAAVGGTVTISCQSSPNILGNYLSWFQQKPGQPPKLLIYYTSTLASGVPSRFKGSGSGTQFTLTISDVQCDDAATYYCLGVYRSDSDNVFGGGTEVVVK
notes: Rabbit IgG, kappa; also called antibody 763
As for B1, the binding result in test [1] and in test [2] was “binds” in each case.
